Values from PubChem BioAssay AID1053208 (Peter MacCallum Cancer Centre, 2014)
Screen: 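Genes whose silencing cuts survival of bone tumour cells only with doxorubicin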 (primary screen). Cells: mouse osteosarcoma cells, early-passage culture from an engineered mouse model of fibroblastic bone tumour. Reagent: siRNA pool against mouse genes, 40 nM. Time to read-out: about 120 h (48 h before drug, then 72 h with drug). Challenge: doxorubicin 100 nM for 72 h, roughly 30-40% inhibitory dose. Measured: 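Luminescent ATP signal taken as viability with or without 100 nM doxorubicin for 72 h; mean of two wells set against non-targeting siRNA and turned into robust z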. Reading the numbers: viability z-score with doxorubicin and doxorubicin viability vs non-targeting: higher = more viable cells under doxorubicin; viability z-score without drug: higher = more viable cells with knock-down alone; z-score of drug to no-drug ratio: higher = less drug sensitisation by knock-down. Active means: 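a pool counts as active when its viability z-score with doxorubicin is -2 or below and its z-score without drug lies between -2 and 2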.
In all, the deposit lists about 17,000 reagents; shown is an unselected part. Over the whole deposit, 788 (4.7%) are marked active. 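Calls rest on z-score classes alone; an extra cut-off of viability at most 70% of control was not applied to them.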 Unmarked entries are inactive.

target	combined z-score class	viability z-score with doxorubicin	viability z-score without drug	z-score of drug to no-drug ratio	doxorubicin viability vs non-targeting
Ybx2 (Y box protein 2)	low cell count with doxorubicin only (active)	-2.25	-1.18	-1.57	0.74
Erg28 (ergosterol biosynthesis 28)	high cell count with and without drug	2.81	2.19	1.35	1.19
Stoml1 (stomatin-like 1)	no change with or without drug	-0.11	-0.17	0.11	0.93
Pik3r5 (phosphoinositide-3-kinase regulatory subunit 5)	no change with or without drug	-1.35	0.17	-1.46	0.82
Sema6c	no change with or without drug	-0.9	-0.17	-0.79	0.86
Anxa10 (annexin A10)	no change with or without drug	0.45	-0.17	0.67	0.98
Cd247 (CD247 antigen)	no change with or without drug	1.46	-1.18	2.7	1.07
Drg1 (developmentally regulated GTP binding protein 1)	low cell count without drug only	-1.01	-2.19	0.67	0.85
B3galt6	no change with or without drug	-0.45	0.84	-0.9	0.9
Selp (selectin, platelet)	no change with or without drug	-1.57	-0.84	-1.01	0.8
Ces2g (carboxylesterase 2G)	no change with or without drug	-0.67	0.17	-0.67	0.88
Emp3 (epithelial membrane protein 3)	no change with or without drug	-0.9	0.17	-0.9	0.86
Pdgfd (platelet-derived growth factor, D polypeptide)	no change with or without drug	-1.91	-1.18	-1.12	0.77
Samd10 (sterile alpha motif domain containing 10)	no change with or without drug	0.45	0.84	0	0.98
Spaar (small regulatory polypeptide of amino acid response)	no change with or without drug	-1.57	0.84	-2.02	0.8
Clec14a (C-type lectin domain family 14, member a)	low cell count with doxorubicin only (active)	-2.02	0.17	-2.14	0.76
Xkr6 (XK related 6)	no change with or without drug	0.67	-0.17	0.9	1
Acox3 (acyl-Coenzyme A oxidase 3, pristanoyl)	no change with or without drug	1.01	1.18	0.34	1.03
Cdkl3 (cyclin dependent kinase like 3)	low cell count with doxorubicin only (active)	-2.47	-1.52	-1.57	0.72

Records listed so far whose gene name starts with A or a (2):
target	combined z-score class	viability z-score with doxorubicin	viability z-score without drug	z-score of drug to no-drug ratio	doxorubicin viability vs non-targeting
Anxa10 (annexin A10)	no change with or without drug	0.45	-0.17	0.67	0.98
Acox3 (acyl-Coenzyme A oxidase 3, pristanoyl)	no change with or without drug	1.01	1.18	0.34	1.03

The results go on:
target	combined z-score class	viability z-score with doxorubicin	viability z-score without drug	z-score of drug to no-drug ratio	doxorubicin viability vs non-targeting
Rac1 (Rac family small GTPase 1)	low cell count with and without drug	-2.81	-4.22	0.11	0.69
Arl9 (ADP-ribosylation factor-like 9)	no change with or without drug	-0.45	1.18	-1.12	0.9
Krtcap2 (keratinocyte associated protein 2)	no change with or without drug	-1.24	-1.18	-0.45	0.83
Colgalt2 (collagen beta(1-O)galactosyltransferase 2)	no change with or without drug	1.46	0.84	1.01	1.07
Rpp25 (ribonuclease P/MRP 25 subunit)	no change with or without drug	0.9	-0.84	1.69	1.02
Stpg2 (sperm tail PG rich repeat containing 2)	no change with or without drug	1.35	-0.34	1.8	1.06
Gng3 (guanine nucleotide binding protein (G protein), gamma 3)	high cell count with and without drug	2.02	2.36	0.56	1.12
Cln5 (ceroid-lipofuscinosis, neuronal 5)	no change with or without drug	-0.34	-1.01	0.45	0.91
Mycl (Mycl proto-oncogene, bHLH transcription factor)	no change with or without drug	-1.01	-0.84	-0.45	0.85
Myh1 (myosin, heavy polypeptide 1, skeletal muscle, adult)	no change with or without drug	1.46	-0.34	1.91	1.07
Actrt1 (actin-related protein T1)	no change with or without drug	-0.67	-0.51	-0.22	0.88
4930422G04RIK	no change with or without drug	-1.57	1.52	-2.36	0.8
Ppt2 (palmitoyl-protein thioesterase 2)	no change with or without drug	0.9	-0.17	1.24	1.02
Mpdz (multiple PDZ domain crumbs cell polarity complex component)	low cell count with and without drug	-2.02	-2.53	-0.34	0.76
Trim11 (tripartite motif-containing 11)	high cell count with doxorubicin only	2.25	0.84	1.8	1.14
Myrip (myosin VIIA and Rab interacting protein)	no change with or without drug	0.9	-0.34	1.35	1.02
Gm11961 (predicted gene 11961)	no change with or without drug	0	1.35	-0.79	0.94
Abcd4 (ATP-binding cassette, sub-family D member 4)	no change with or without drug	0.34	0.17	0.34	0.97
Or6a2 (olfactory receptor family 6 subfamily A member 2)	no change with or without drug	0.22	1.35	-0.56	0.96
Itgam (integrin alpha M)	no change with or without drug	-0.45	0.67	-0.79	0.9
Mkln1 (muskelin 1, intracellular mediator containing kelch motifs)	high cell count without drug only	0.79	2.19	-0.45	1.01
Iars1 (isoleucyl-tRNA synthetase 1)	no change with or without drug	-0.45	-0.51	0	0.9
Trim44 (tripartite motif-containing 44)	no change with or without drug	0.9	-0.84	1.69	1.02
Hint1 (histidine triad nucleotide binding protein 1)	no change with or without drug	1.8	1.85	0.67	1.1
Adk (adenosine kinase)	no change with or without drug	-0.11	-0.51	0.34	0.93
Tstd2	no change with or without drug	0.45	-1.85	2.14	0.98
Mpc2	no change with or without drug	0.9	0.17	0.9	1.02
Slfn9 (schlafen 9)	no change with or without drug	0.22	-0.17	0.45	0.96
Aktip (AKT interacting protein)	no change with or without drug	-1.57	-1.52	-0.56	0.8
Atp10b (ATPase, class V, type 10B)	no change with or without drug	0.56	1.18	-0.11	0.99
Tnr (tenascin R)	no change with or without drug	0.67	0.51	0.45	1
